The list does not hold the whole screen: it is rich in T/C values a quarter to a half above the control, in often repeated tests (any T/C) and in doses without a T/C. Further doses and runs are listed elsewhere. T/C gives the treated animals as a percentage of the vehicle group. Some doses have a count of surviving animals in place of a T/C: the source holds a T/C of zero for them, seemingly a mark for toxic or unscored doses. Some survivor counts are full or nearly so, which does not show that the dose was tolerated: survival well below the control is almost never listed, so the zero probably covers shortened survival too. Survivors were counted at the toxicity check, usually on the fifth day, unless a day is given; later deaths do not show. Schedules are NCI's codes, read here as Q, the interval in days (D) or hours (H), X, the number of doses. Some schedules carry Z or #; the key to these is not given. Where survival is the endpoint, this PubChem deposit counts one and a half times the control or more as active, and values a quarter to a half above the control carry no call in these data; other NCI protocols may use other cut-offs.
System: L1210 leukemia ip in BDF1 mice, survival T/C
Assay: NCI In Vivo Anticancer Drug Screen. Data for tumor model L1210 Leukemia (intraperitoneal) in B6D2F1 (BDF1) mice
Settings: T/C endpoint: mean survival time, higher T/C = longer survival
[1] = dose: 400.0 mg/kg/injection, schedule: Q01DX009 (ip), vehicle: Klucel (hydroxypropylcellulose) (HPC)
[2] = dose: 400.0 mg/kg/injection, schedule: Q01DX009 (ip), vehicle: saline
[3] = dose: 400.0 mg/kg/injection, schedule: Q01DX001 (ip), vehicle: carboxymethylcellulose (CMC)
[4] = dose: 100.0 mg/kg/injection, schedule: Q04DX002 (ip), vehicle: Klucel (hydroxypropylcellulose) (HPC)
[5] = dose: 200.0 mg/kg/injection, schedule: Q04DX002 (ip), vehicle: Klucel (hydroxypropylcellulose) (HPC)
[6] = dose: 400.0 mg/kg/injection, schedule: Q04DX002 (ip), vehicle: Klucel (hydroxypropylcellulose) (HPC)
[7] = dose: 50.0 mg/kg/injection, schedule: Q01DX009 (ip), vehicle: Klucel (hydroxypropylcellulose) (HPC)
[8] = dose: 400.0 mg/kg/injection, schedule: Q01DX001 (ip), vehicle: saline
[9] = dose: 200.0 mg/kg/injection, schedule: Q01DX001 (ip), vehicle: saline
[10] = dose: 75.0 mg/kg/injection, schedule: Q01DX001 (ip), vehicle: saline
[11] = dose: 300.0 mg/kg/injection, schedule: Q01DX001 (ip), vehicle: saline
[12] = dose: 200.0 mg/kg/injection, schedule: Q01DX009 (ip), vehicle: saline with Tween-80
[13] = dose: 400.0 mg/kg/injection, schedule: Q04DX003 (ip), vehicle: saline with Tween-80
[14] = dose: 400.0 mg/kg/injection, schedule: Q01DX009 (ip), vehicle: saline with Tween-80

With `CCCCCCCCCCCCCCCCS(=O)(=O)N/N=C(/c1cccc(N)c1)N1CCCCC1` the survivor count (dose: 200.0 mg/kg/injection, schedule: Q04DX003 (ip), vehicle: saline with Tween-80) was 6 of 6.
`CC(=O)N(C)c1ccc(NC(=O)CCl)cc1` was tested, and the survivor count [1] was 0 of 6.
In the case of `CC1CC(C(C)(C)C)CCC1S` (stereo unspecified), the survivor count [2] was 4 of 6.
For `CC(=O)N/N=C/c1ccc(N(C)C)cc1`, the survivor count [3] was 2 of 4.
`CCOC1OCN(C(C)(C)C)CC1(C)C` (stereo unspecified) was tested, and the survivor count [2] was 1 of 6.
`ClCCN(CCCCCCN(CCCl)Cc1ccccc1)Cc1ccccc1` was tested, and the survivor count (dose: 10.0 mg/kg/injection, schedule: Q04DX002 (ip), vehicle: Klucel (hydroxypropylcellulose) (HPC)) was 1 of 3, the survivor count (dose: 20.0 mg/kg/injection, schedule: Q04DX002 (ip), vehicle: Klucel (hydroxypropylcellulose) (HPC)) was 0 of 3 and the survivor count (dose: 40.0 mg/kg/injection, schedule: Q04DX002 (ip), vehicle: Klucel (hydroxypropylcellulose) (HPC)) was 0 of 3. For the same molecule, the survivor count [4] was 1 of 3, the survivor count [5] was 0 of 3 and the survivor count [6] was 0 of 3.
With `NC1CCC(CC2CCCCCC2)CC1` (stereo unspecified) the survivor count [7] was 0 of 6, the survivor count (dose: 100.0 mg/kg/injection, schedule: Q01DX009 (ip), vehicle: Klucel (hydroxypropylcellulose) (HPC)) was 0 of 6 and the survivor count (dose: 200.0 mg/kg/injection, schedule: Q01DX009 (ip), vehicle: Klucel (hydroxypropylcellulose) (HPC)) was 0 of 6. The survivor count [1] was 0 of 6.
`CC(=O)CC(C)(C)c1ccccc1` was tested, and the survivor count [2] was 3 of 6.
For `CN(C)c1ccc(C(N)C(=O)O)cc1` (stereo unspecified), the survivor count [8] was 0 of 4.
In the case of `NC(CCl)=NCCCN1CCCCC1`, the survivor count [7] was 0 of 3, the survivor count [4] was 0 of 3 and the survivor count [5] was 0 of 3. The survivor count [6] was 3 of 3.
For `CC(=O)[O][Hg][CH]1Cc2ccccc2O1` (stereo unspecified), the survivor count (dose: 30.0 mg/kg/injection, schedule: Q01DX001 (ip), vehicle: carboxymethylcellulose (CMC)) was 3 of 6, the survivor count (dose: 60.0 mg/kg/injection, schedule: Q01DX001 (ip), vehicle: carboxymethylcellulose (CMC)) was 0 of 6 and the survivor count (dose: 75.0 mg/kg/injection, schedule: Q01DX001 (ip), vehicle: carboxymethylcellulose (CMC)) was 0 of 6. For the same molecule, the survivor count (dose: 150.0 mg/kg/injection, schedule: Q01DX001 (ip), vehicle: carboxymethylcellulose (CMC)) was 0 of 6 and the survivor count (dose: 300.0 mg/kg/injection, schedule: Q01DX001 (ip), vehicle: carboxymethylcellulose (CMC)) was 0 of 6.
With `CCCC[N+](C)(C)CCOC(=O)C1C2CC3OC(=O)C1C3C2` (stereo unspecified) the survivor count (dose: 200.0 mg/kg/injection, schedule: Q04DX003 (ip), vehicle: saline) was 0 of 4 and the survivor count (dose: 400.0 mg/kg/injection, schedule: Q04DX003 (ip), vehicle: saline) was 0 of 4.
With `c1ccc([P+](CC2CCCO2)(c2ccccc2)c2ccccc2)cc1` (stereo unspecified) the survivor count [9] was 1 of 4 and the survivor count [8] was 0 of 4.
For `OCC1OC(n2cnc3c(NO)nc(NO)nc32)C(O)C1O` (stereo unspecified), the T/C (dose: 9.0 mg/kg/injection, schedule: Q01DX009 (ip), vehicle: saline) was 129 % of control, the T/C (dose: 13.0 mg/kg/injection, schedule: Q01DX009 (ip), vehicle: saline) was 137 % of control and the T/C (dose: 20.0 mg/kg/injection, schedule: Q01DX009 (ip), vehicle: saline) was 140 % of control. For the same molecule, the T/C [10] was 125 % of control and the survivor count [11] was 0 of 6.
`O=C=Nc1cccc2c(N=C=O)cccc12` was tested, and the survivor count (dose: 50.0 mg/kg/injection, schedule: Q01DX009 (ip), vehicle: saline with Tween-80) was 3 of 3 and the survivor count [12] was 3 of 3.
In the case of `Nc1ccc(CCCCc2ccccc2)cc1Cl`, the survivor count [13] was 0 of 6.
In the case of `O=C(Nc1ccc(C2=NCCN2)cc1)c1ccc(C(=O)Nc2ccc(C3=NCCN3)cc2)o1`, the T/C (dose: 60.0 mg/kg/injection, schedule: Q01DX Z (ip), vehicle: carboxymethylcellulose (CMC)) was 148 % of control.
With `ClCC[n+]1ccc(-c2cc[n+](CCCl)cc2)cc1` the survivor count (dose: 1.25 mg/kg/injection, schedule: Q01DX Z (ip), vehicle: saline) was 2 of 6, the survivor count (dose: 2.5 mg/kg/injection, schedule: Q01DX Z (ip), vehicle: saline) was 3 of 6 and the survivor count (dose: 5.0 mg/kg/injection, schedule: Q01DX Z (ip), vehicle: saline) was 6 of 6. The survivor count (dose: 10.0 mg/kg/injection, schedule: Q01DX Z (ip), vehicle: saline) was 3 of 6.
`CC(N)CCC(C)(C)O` (stereo unspecified) was tested, and the survivor count (dose: 200.0 mg/kg/injection, schedule: Q01DX009 (ip), vehicle: saline) was 1 of 6.
For `c1ccc(C2C(c3ccccc3)N2CCCN2CCOCC2)cc1` (stereo unspecified), the survivor count (dose: 400.0 mg/kg/injection, schedule: Q04DX003 (ip), vehicle: Klucel (hydroxypropylcellulose) (HPC)) was 3 of 6.
For `COc1ccc(C2NC(=S)N3C(c4ccc(OC)c(OC)c4)NC(=S)N23)cc1OC` (stereo unspecified), the survivor count (dose: 400.0 mg/kg/injection, schedule: Q04DX003 (ip), vehicle: gum acacia) was 6 of 6.
In the case of `CCOc1ccc(NC(=O)Nc2ccccc2Cl)cc1`, the survivor count (dose: 50.0 mg/kg/injection, schedule: Q01DX009 (ip), vehicle: gum acacia) was 6 of 6, the survivor count (dose: 100.0 mg/kg/injection, schedule: Q01DX009 (ip), vehicle: gum acacia) was 6 of 6 and the survivor count (dose: 100.0 mg/kg/injection, schedule: Q04DX003 (ip), vehicle: gum acacia) was 6 of 6. The survivor count (dose: 400.0 mg/kg/injection, schedule: Q01DX009 (ip), vehicle: gum acacia) was 6 of 6.
In the case of `COC1CCC(OC2CC(C3(C)CCC4(CC(O)C(C)C(C(C)/C=C(\C)C(=O)C(C)CC(C)C(=O)O)O4)O3)OC3(OC(C4OC(O)(CO)C(C)CC4C)CC3C)C2C)OC1C` (stereo unspecified), the survivor count (dose: 0.46 mg/kg/injection, schedule: Q04DX003 (ip), vehicle: saline) was 6 of 6, the survivor count (dose: 0.93 mg/kg/injection, schedule: Q04DX003 (ip), vehicle: saline) was 5 of 6 and the survivor count (dose: 1.87 mg/kg/injection, schedule: Q04DX003 (ip), vehicle: saline) was 0 of 6. The survivor count (dose: 3.75 mg/kg/injection, schedule: Q01DX001 (ip), vehicle: saline) was 0 of 6, the survivor count (dose: 7.5 mg/kg/injection, schedule: Q01DX001 (ip), vehicle: saline) was 0 of 6 and the survivor count (dose: 15.0 mg/kg/injection, schedule: Q01DX001 (ip), vehicle: saline) was 0 of 6. The survivor count (dose: 30.0 mg/kg/injection, schedule: Q01DX001 (ip), vehicle: saline) was 0 of 6.
For `CCN(CC)CCCNC(C)CCCN(CC)CC` (stereo unspecified), the survivor count (dose: 400.0 mg/kg/injection, schedule: Q04DX003 (ip), vehicle: water) was 3 of 6.
In the case of `CC1(C)CN1c1nc(N2CC2(C)C)nc(N2CC2(C)C)n1`, the T/C (dose: 100.0 mg/kg/injection, schedule: Q01DX001 (ip), vehicle: carboxymethylcellulose (CMC)) was 131 % of control and the survivor count [3] was 1 of 6.
For `Cc1ccc(C(=O)C(C)CN2CCCCC2)cc1` (stereo unspecified), the survivor count [8] was 0 of 4.
For `Nc1nc(=O)n(C2OC(CO)C(O)C2O)c2nc(I)[nH]c12` (stereo unspecified), the survivor count (dose: 200.0 mg/kg/injection, schedule: Q01DX005 (ip), vehicle: saline) was 1 of 4.
In the case of `O=C1NC(=S)N/C1=C\c1ccco1`, the survivor count [9] was 1 of 6 and the survivor count [8] was 1 of 6.
For `NNC(=O)CNc1cccc(Cl)c1`, the survivor count [6] was 0 of 3.
For `CC(O)C1CCN(Cc2ccccc2)CC1` (stereo unspecified), the survivor count [3] was 1 of 6.
`CC(CC(=O)O)Nc1ccc(Cl)c(Cl)c1` (stereo unspecified) was tested, and the survivor count [12] was 6 of 6, the survivor count [14] was 0 of 6 and the survivor count [13] was 2 of 6.
With `CNc1ncnc2nc(Cl)[nH]c12` the survivor count [9] was 0 of 6 and the survivor count [8] was 1 of 6.
`O=[N+]([O-])c1c[n+]([O-])ccc1Cl` was tested, and the survivor count [10] was 0 of 6, the survivor count (dose: 150.0 mg/kg/injection, schedule: Q01DX001 (ip), vehicle: saline) was 0 of 6 and the survivor count [11] was 0 of 6.
With `C=CCCCCCCCCC(=O)N(CCOC)CCOC` the survivor count [12] was 3 of 6 and the survivor count [14] was 0 of 6.

— PubChem BioAssay AID248 (DTP/NCI, 2004)
